Screening data, single-dose tests

Amino acid sequences for entries named in this document (tags omitted). Residues count along the entry.
UniProt Q8IDJ8, 1-583: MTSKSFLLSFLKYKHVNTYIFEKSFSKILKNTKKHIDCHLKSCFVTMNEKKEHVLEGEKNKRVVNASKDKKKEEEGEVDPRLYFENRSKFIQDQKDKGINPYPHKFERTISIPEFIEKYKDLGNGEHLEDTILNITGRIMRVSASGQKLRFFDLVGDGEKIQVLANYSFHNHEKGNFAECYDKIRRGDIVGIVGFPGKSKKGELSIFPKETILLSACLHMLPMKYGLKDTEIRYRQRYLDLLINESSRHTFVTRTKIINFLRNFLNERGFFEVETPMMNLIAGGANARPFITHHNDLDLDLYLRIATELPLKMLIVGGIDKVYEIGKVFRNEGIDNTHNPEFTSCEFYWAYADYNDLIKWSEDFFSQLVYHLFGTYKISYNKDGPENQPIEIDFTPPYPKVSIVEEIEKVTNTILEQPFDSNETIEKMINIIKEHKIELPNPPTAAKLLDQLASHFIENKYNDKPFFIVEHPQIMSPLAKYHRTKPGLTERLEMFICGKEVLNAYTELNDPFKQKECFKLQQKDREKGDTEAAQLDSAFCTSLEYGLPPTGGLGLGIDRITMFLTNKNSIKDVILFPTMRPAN
UniProt Q4DA54, 1-478: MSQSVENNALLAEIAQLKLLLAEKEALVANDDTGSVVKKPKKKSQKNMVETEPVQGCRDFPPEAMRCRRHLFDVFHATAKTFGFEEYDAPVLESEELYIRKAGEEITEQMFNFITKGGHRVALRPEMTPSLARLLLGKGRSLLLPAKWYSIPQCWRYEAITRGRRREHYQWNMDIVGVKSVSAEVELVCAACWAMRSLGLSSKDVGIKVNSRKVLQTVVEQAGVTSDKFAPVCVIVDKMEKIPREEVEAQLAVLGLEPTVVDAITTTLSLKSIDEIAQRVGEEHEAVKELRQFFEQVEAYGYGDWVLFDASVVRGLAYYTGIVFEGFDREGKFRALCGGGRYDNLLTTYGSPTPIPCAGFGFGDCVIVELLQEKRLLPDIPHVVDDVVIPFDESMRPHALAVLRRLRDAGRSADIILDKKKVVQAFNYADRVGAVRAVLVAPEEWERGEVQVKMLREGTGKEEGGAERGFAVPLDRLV

Source: ChEMBL document CHEMBL3988442, “University of Dundee, Small-Polar-MMV Screening Library” (2021).

Leishmania in macrophages: 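Cell assay of Leishmania donovani living inside macrophages; the read-out is not stated. Compounds at 30 µM. The record gives no direction; compounds that gave an IC50 in retests scored well above the rest, so higher reads as stronger inhibition. Size under these conditions: about 69,000 compounds, about 1,000 of them at 50% or above in at least one test.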
T. brucei: 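Whole-parasite assay of Trypanosoma brucei over 72 hours; the read-out is not stated. Compounds at 30 µM. Higher reads as stronger inhibition (inferred: compounds with an IC50 in retests scored well above the rest). Values scatter widely below zero; nearly all retest evidence comes from the higher of the two concentrations used. Of about 64,000 compounds tested this way, about 940 (1.5%) reached 50% or more in at least one test.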
Toxoplasma: 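Assay of Toxoplasma gondii numbers, read through their beta-galactosidase reporter with a colour substrate. Tested at 10 µM. The record gives no direction; the compounds picked for IC50 retests had high values, so higher reads as fewer parasites. Of about 67,000 compounds tested this way, about 260 (0.38%) reached 50% or more in at least one test.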
PfKRS1: 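Lysine-tRNA ligase, Plasmodium falciparum 3D7 (UniProt Q8IDJ8). Enzyme assay of the cytosolic lysyl-tRNA synthetase in 384-well plates, read by luminescence. Tested at 30 µM. Higher reads as stronger inhibition, judged from the few compounds that gave an IC50. Of about 69,000 compounds tested this way, about 49 (0.071%) reached 50% or more in at least one test.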
TcHisRS: 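Enzyme assay of histidyl-tRNA synthetase; the read-out is not stated. Target: Histidine-tRNA ligase, Trypanosoma cruzi CL Brener (UniProt Q4DA54). Tested at 30 µM. Higher reads as stronger inhibition (inferred: compounds with an IC50 in retests scored well above the rest). About 69,000 compounds were tested under these conditions; 0.045% (about 31) showed 50% or more at least once.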

Each number is a percent effect as filed.
The controls that fix the scale are not given in the record; negative values are as filed.
Compounds were drawn at random from those tested, without regard to their results.
Two or more numbers in one place are separate tests of the same structure; such repeats can differ widely.
A dash means the value is not listed here; it may have been measured.

structure,Leishmania in macrophages,T. brucei,Toxoplasma,PfKRS1,TcHisRS
COc1ccc(NC(=O)C2CCOC2)c(N2CCN(C(C)=O)CC2)n1 (configuration not stated),38.42,-23.79,5.237,8.369,-15.51
CN(C)C(=O)N1CCCC2(CCN(c3ccsc3)C2=O)C1 (configuration not stated),37.18,-20.38,4.503,-0.6033,4.082
Cc1noc([C@@H]2CCCN2C(=O)C2CCN(C(=O)C3CCC3)CC2)n1,-3.974,-66,-0.4379,-2.909,7.438
Cc1nc(-c2nnc[nH]2)sc1C(=O)N1CCCC(C(F)(F)F)C1 (configuration not stated),5.81,-12.88,-11.99,6.691,2.128
CC(C)CCN1CCN(Cc2nc(C3CC3)no2)CC1,-20.97,-43.72,-2.935,-2.156,3.743
Cc1cc(Cc2cccc(C(F)(F)F)c2)cc(C2CCCNC2)n1 (configuration not stated),91.42,99.88,13.55,1.717,9.579
CC(C)(C)c1oc(C(N)=O)cc1CN1CCCCC1CN1CCOCC1 (configuration not stated),-6.738,-29.04,-3.714,1.192,6.548
O=C(O)C(F)(F)F.[H][C@]12C[C@H](C(=O)NC)N(C)[C@@]1([H])CN(S(=O)(=O)c1ccc(C)c(F)c1)C2,-3.672,-4.017,7.606,-,-
CCCOc1ccc(C(=O)N2CCN3CCNC(=O)C3C2)cc1Cl (configuration not stated),10.34,-20.62,3.767,0.8697,6.579
[H][C@@]12CN(C(=O)c3cnccn3)C[C@@]1([H])N(CC1CCCC1)C(=O)CO2,7.425,17.68,7.266,-,-
COCc1ccccc1C(=O)NCCCN1CCCC1C(=O)N(C)C (configuration not stated),-16.5,-71.89,1.861,-1.078,0.8264
O=C(c1ccco1)N1CC[C@@H]2[C@H]1CCC(=O)N2c1ccccc1,-,-,-,2.249,6.122
CC(C)C(NC(=O)c1ccc(Cl)cc1Cl)C(=O)Nc1ccn(C)n1 (configuration not stated),15.07,9.298,10.56,4.029,0.8403
CC(C)CSCCCNC(=O)C1CCOCC1,-12.05,-1.546,-7.1,1.435,12.71
CN(CCN1CCCCCC1)C(=O)c1cc(CN2CCC(O)CC2)on1,26.06,-62.84,8.758,5.344,4.959
CCn1c(CN(C)C(C)CSC)nc2c(F)cccc21 (configuration not stated),23.61,-27.45,0.6002,1.77,-2.521
[H][C@]12CCN(c3ncccc3F)C[C@]1(COC)CC[C@@H](N1CCOCC1)C2,25.63,8.261,-5.772,-,-
COc1cccc(CNCc2ccc(NC(=O)NC(C)C)cc2)c1,18.88,-,20.53,1.407,2.564
Cc1c(Cl)c(C(=O)N2CC[C@H](N3CCOCC3)[C@H](CCCO)C2)nn1C,24.93,-96.98,-8.507,-1.78,3.279
COCC1CN(Cc2ccc(C)s2)Cc2nnn(C)c21 (configuration not stated),-,-,-,2.431,8.411
Cc1ccccc1CNc1ccccc1OCC(=O)N1CCOCC1,-40.5,-22.83,1.666,5.174,-6.25
COc1nc2c(cc1C(=O)NCCc1nc3ccccc3s1)CCC2,0.5497,3.111,-1.479,1.165,1.63
CN(Cc1ccc2c(c1)OCO2)C(=O)NCCc1cnn(C)c1,10.71,-,0.8832,1.001,3.79
NC(=O)CCSCc1cc(Br)cc2cccnc12,18.7,5.917,30.2,-2.159,-7.692
O=C(O)C(F)(F)F.O=C(O)C(F)(F)F.[H][C@@]12CN(Cc3ccco3)C[C@]1([H])OCCN2CC1CCCO1 (some centres not stated),13.42,14.34,-10.53,-,-
CN1CCc2c(C#N)c(NCc3ccccc3)n3cnnc3c2C1,9.975 and -2.432,-60.42,-3.108,-8.844,0
Cc1cc(CN(C)C(=O)NCc2ccnc(OC3CCCC3)c2)no1,21.17,-4.134,-13.12,8.874,0
Cc1cc(OCCC(=O)NCc2ccc(F)cc2)nnc1C,-17.71,71.51,6.744,-0.8692,10
Cc1cccnc1CN1CCN(C[C@]2(O)CCCN3CCCC[C@@H]32)CC1,-,-,-,-0.9746,0
COc1cc(N2C[C@H](C(=O)NC3CC3)[C@@H]3CCO[C@@H]3C2)ncn1,-,-,-,2.845,3.509
O=C(c1sccc1C1CC1)N1CCN(c2nccs2)CC1,18.58,9.892,10,9.022,6.667
CC(Cn1cccn1)NCc1csc(-c2ccsc2)n1 (configuration not stated),31.26,3.162,-4.142,-1.11,7.324
CSCCNC(=O)c1coc(COc2ccc(F)cc2)n1,-4.744,-8.328,15.74,-1.656,1.058
CSC(C)(C)CNC(=O)NCc1cccc(-n2ccnc2)c1,18.54 and 6.534,-16.08,-25.93,1.667,-1.22
COCCn1cc(C(=O)N2CCCC2c2cccc(C)c2)ccc1=O (configuration not stated),29.63,-27.3,1.973,1.223,1.031
CC(C)c1ncc(Cl)c(C(=O)N2CCCN3CCCC3C2)n1 (configuration not stated),1.539,6.95,2.128,3.236,-1.293
Cc1cc(C)nc(C2CCN(C(=O)CCn3nnc4ccccc43)C2)n1 (configuration not stated),16.17,-13.3,-3.933,1.687,4.563
O=C(O)C(F)(F)F.[H][C@]12CCC[C@@]1(COCC(=O)N(C)C)CN(C1CCC1)C2,28.18,-31.03,4.84,-,-
c1ccc(N2CCCC3(CCN(Cc4ccsc4)C3)C2)nc1 (configuration not stated),-,-,-,-2.127,6.25
CN(C)CCN1CCc2c(nnn2C)C1COCc1ccccc1.O=C(O)C(F)(F)F.O=C(O)C(F)(F)F (configuration not stated),-11.02,-15.39,-6.223,-,-
CCN1CCCC12CCCN(c1ncccn1)C2.O=C(O)C(F)(F)F (configuration not stated),-9.731 and -5.102,-38.51,3.273,-,-
CC(CN1CCOCC1)OC(=O)c1ccccc1Cl.Cl (configuration not stated),-4.529,-53.51,11.69,-,-
CN(Cc1cccnc1)[C@@H]1CN(c2ncc(F)cn2)[C@@H]2CCCO[C@H]12,-,-,-,-4.151,3.81
CC(C)C(=O)NCCCn1ncc2c(Cl)cccc21,8.368,-4.438,10.93,-0.7879,-2.51
CC1=N[C@@]2(CC[C@@H]3CN(C(=O)NCC(C)C)C[C@@H]32)C(=O)N1C,-,-,-,4.903,5.473
CCn1cnnc1CNC(=O)N1CCOCC1,-25.6,4.477,-2.591,4.056,1.887
NCC(c1ccc(Cl)cc1)N1CCc2sccc2C1 (configuration not stated),40.17,100.3,32.54,-1.669,-13

Some entries from above, unchanged:

{"structure": "Cc1c(Cl)c(C(=O)N2CC[C@H](N3CCOCC3)[C@H](CCCO)C2)nn1C", "Leishmania in macrophages": 24.93, "T. brucei": -96.98, "Toxoplasma": -8.507, "PfKRS1": -1.78, "TcHisRS": 3.279}
{"structure": "CC(C)c1ncc(Cl)c(C(=O)N2CCCN3CCCC3C2)n1", "stereo": "configuration not stated", "Leishmania in macrophages": 1.539, "T. brucei": 6.95, "Toxoplasma": 2.128, "PfKRS1": 3.236, "TcHisRS": -1.293}
{"structure": "O=C(c1sccc1C1CC1)N1CCN(c2nccs2)CC1", "Leishmania in macrophages": 18.58, "T. brucei": 9.892, "Toxoplasma": 10, "PfKRS1": 9.022, "TcHisRS": 6.667}